Reference: PubChem BioAssay AID493014 (National Center for Advancing Translational Sciences (NCATS), 2011)
The other results are listed elsewhere or left out. Further columns of the screen follow, without active or inactive calls. The list favours compounds with an active or inconclusive main result. Words in brackets tell the shape of the fitted curve; partial curves, single points and poor fits give uncertain potencies.

Test: qHTS Assay to Find Inhibitors of Chronic Active B-Cell Receptor Signaling
Conditions: ABC-DLBCL IkBa-CBG/CBR reporter, luminescence ratio (green luciferase fused to IkBa over red control in TMD8 lymphoma cells), 4 h
Source text: NIH Molecular Libraries Probe Production Network [MLPCN] NIH Chemical Genomics Center [NCGC] MLPCN Grant: 1 R03 DA031086-01A1 PI Name: Dr. R. Eric Davis NCGC Assay Overview: Diffuse large B-cell lymphoma (DLBCL) is the most common category of non-Hodgkin lymphoma, with ~20,000 new cases per year in the United States. DLBCL should be regarded as a collection of different neoplasms. Microarray gene expression analysis has defined two principal types of DLBCL, named for their similarity to normal B cell stages or activation states: a germinal center B-cell (GCB) type, and an activated B-cell (ABC) type. In ABC-DLBCL, a constitutive high-level activity of the NF-kappaB family of transcription factors has been observed (1) and NF-kappaB target genes are more highly expressed in ABC primary tumors than in GCB tumors. Functional studies have shown a constitutive high-level activity of the IkappaB (inhibitor of kappa-B) kinase (IKK) complex. […] Further analysis of DLBCL primary tumors for NF-kappaB target gene expression imply that although CARD11 is required for constitutive IKK activity in all ABC-DLBCL lines, mutations in CARD11 may be the root cause of IKK activation only in lines or tumors with such mutations. In other words, CARD11 mutations may explain NF-kappaB activation in only 10% of ABC-DLBCL cases. […] This process has been termed 'chronic active BCR signaling' (CABS). The goal of this screen is to find small-molecule inhibitors of the CABS pathway found in ABC-DLBCL lines using a cell-based assay that measures IkappaBalpa stability, which has already been extensively validated in the OCI-Ly3 line (PubChem AID:445; REF: 4). […] The assay uses green (CBG68) and red (CBR) emitting beetle luciferases [Chroma-GloTM developed by Promega Corp.] where the green luciferase is fused to IkappaBalpha and the red luciferase is present in its native state. Both luciferase genes are stably present in the TMD8 human ABC DLBCL cell line, but their expression is under the control of tetracycline-inducible promoters. Following the addition of doxycycline to induce expression of the luciferases, the green luminescence in control cultures rises only slowly because the CBG fusion partner IkappaBalpha is targeted by IKK activity for rapid degradation. In contrast, green luminescence rises rapidly in the presence of proteasome inhibitors or IKK inhibitors. The rise in red luminescence of CBR is not affected by proteasome or IKK inhibitors, and serves as normalization for cell number and nonspecific effects. Compounds were screened as a concentration-titration series that ranged from 46 uM to 3 nM.
NCGC Assay Protocol Summary: Cells were seeded in 1536-well plates at 5000 cells/4uL in IMDM medium containing 0.5% FBS, w/o phenol red, 1% penicillin/streptomycin. Then, 23 nL of compounds or DMSO were delivered to each well using a pin tool. One uL 20ng/ml doxycycline was then dispensed into white solid 1536-well plates and the plates were incubated at 37C/5% C02 in a cell incubator for 4 hrs. Then 4 uL luminescent substrate mix (in-house prepared: 150 mM Tris-Cl, pH 7.6, 3 mM MgCl2, 1% Triton X-100, 5 mM DTT, 0.2 mM CoA, 0.15 mM ATP, 5 mM D-luciferin, final concentrations) was added to each well. The plate was incubated at r.t. for 10-15 min. The plates were measured on a ViewLux plate reader for green luminescence (540/20 nm filter) and red luminescence (618/8 nm filter). The green and red luminescent signals were corrected for red and green luminescence filter overlap using previously determined filter calibration constants (determined using the procedure outlined in the Promega Technical Manual; REF 4). The %Activity was determined from the ratio of corrected green/red luminescent values. MG132 were used as control. […] Red luminescent %Activity was normalized to the difference between red luminesence in basal cells (0%Activity) and zero luminescence (-100% Activity). […]

[1] = measured here: CBR red luminescence, cell number
[2] = measured here: IkBa-CBG green luminescence

SMILES | AC50 [1] | AC50 [2]
Cc1ccc(/C=C/C2=NN(Cc3ccccc3)C(=O)CC2)cc1 | 16.4 µM [rising, single point] | 
Cc1nn(C)c(C)c1CN(C)C(=O)c1cnn2c1NC(c1ccccc1)CC2C(F)(F)F (stereo unspecified) | 22.4 µM [rising, single point] | 
Cc1nc2c(-c3ccc(Cl)cc3)c(C)[nH]n2c(=O)c1Cc1ccccc1 | 20 µM [falling, single point] | 
O=C(N/N=C/c1ccncc1)c1cc2ccccc2o1 | 18.4 µM [falling, partial curve, poor fit] | 
Cc1ccc(C(=O)Nc2sc3c(c2C(=O)O)CCCC3)o1 | 1.26 µM [falling, full curve, poor fit] | 
COc1ccc2oc(C(=O)Nc3nccs3)c(C)c2c1 | 1.16 µM [falling, full curve] | 
COc1ccc(NC(=O)C2C3CCC4C(CCC32)C4(Cl)Cl)cc1 (stereo unspecified) | 4.61 µM [rising, full curve] | 
COC(=O)C(O)(NC(=O)OCc1ccccc1)C(F)(F)F (stereo unspecified) | 0.082 µM [rising, full curve, poor fit] | 
O=C(CSc1ccccn1)Nc1nc2c(ccc3ccccc32)s1 | 8.2 µM [falling, partial curve] | 14.6 µM [rising, partial curve, poor fit]
CCC1CCCCN1CCCCOc1cccc(Cl)c1 (stereo unspecified) | 2.82 µM [falling, partial curve, poor fit] | 
CC(=O)c1ccc(-c2ccc(C(=O)NC3CCCCCC3)o2)cc1 | 11.2 µM [falling, partial curve, poor fit] | 
Cc1cc(-c2ccc(C(=O)O)s2)cnc1N | 2 µM [falling, full curve] | 
CC(C)Oc1c(Br)cc(Br)cc1/C=N/NC(N)=S | 23.1 µM [falling, partial curve, poor fit] | 18.4 µM [falling, single point]
O=C(CSc1nnc(-c2cccnc2)o1)Nc1nccs1 |  | 29.1 µM [falling, single point]
CN(C)S(=O)(=O)N(CC(=O)N(Cc1ccccc1)Cc1ccccc1)c1ccccc1 | 2.91 µM [falling, single point] | 
N#Cc1c(NC(=O)c2cccc(S(=O)(=O)Nc3ccc(C(=O)O)cc3)c2)sc2c1CCCC2 | 20 µM [falling, single point] | 
COc1cc(/C=C2\SC(=O)N(c3ccc(O)cc3)C2=O)cc(OC)c1OC | 2.51 µM [falling, full curve, poor fit] | 
Cc1ccccc1-c1cc(C(=O)O)nn1CC1CC(c2cccc([N+](=O)[O-])c2)=NO1 (stereo unspecified) | 16.4 µM [falling, single point] | 
COc1ccccc1NS(=O)(=O)c1ccc(C)c(C(=O)NCc2cccnc2)c1 | 1.3 µM [falling, full curve, poor fit] | 
O=S1(=O)CCOC[C@H](CC2CCCCC2)N1Cc1cccc(F)c1 | 12.6 µM [falling, partial curve, poor fit] | 
Cc1c(C(=S)NC(=O)C2CC2)c(=O)n(-c2ccccc2)n1C | 2.24 µM [rising, full curve] | 

SMILES | AC50 [1] | AC50 [2]
COc1cccc(NC(=O)CSc2nc3ccccc3cc2Cc2ccccc2)c1 | 6.31 µM [falling, single point] | 
Cn1c(N)c(C(=O)COC(=O)c2ccc(Cl)c(S(=O)(=O)N3CCCCC3)c2)c(=O)n(C)c1=O | 4.61 µM [rising, full curve, poor fit] | 
CCOc1ccc(S(=O)(=O)N2CCN(S(=O)(=O)c3ccc(OCC)cc3)C(C)C2)cc1 (stereo unspecified) | 11.2 µM [rising, partial curve, poor fit] | 
Cc1ccccc1NC(=O)c1ccc(CN2CCC(Cc3ccccc3)CC2)cc1 | 0.562 µM [falling, full curve] | 
CCOc1ccccc1C1CC(=O)Nc2cc(OC)c(OC)c(OC)c21 (stereo unspecified) | 0.794 µM [rising, full curve, poor fit] | 
Cc1cc(C)nc(Nc2n[nH]c(-c3ccccc3N)n2)n1 | 11.2 µM [falling, partial curve, poor fit] | 
c1ccc(CCc2nc(-c3cccnc3)no2)cc1 | 14.6 µM [falling, partial curve, poor fit] | 
CN(C)C(=O)c1cccn(Cc2ccc(C(F)(F)F)cc2)c1=O | 0.2 µM [falling, full curve, poor fit] | 
O=C(CN1C(=O)COc2ccc(S(=O)(=O)N3CCCCCC3)cc21)NCc1ccc(Cl)cc1 | 8.91 µM [falling, single point] | 
CCSc1nsc(NC(=O)Nc2ccc(F)cc2F)n1 | 0.316 µM [falling, full curve] | 
CC1CCCN(C(=O)CSc2nnc(-c3ccc(S(=O)(=O)N4CCOCC4)cc3)n2C)C1 (stereo unspecified) | 31.6 µM [rising, single point] | 
N#Cc1c(NC(=O)CSc2n[nH]c(N)n2)oc(-c2ccccc2)c1-c1ccccc1 | 14.6 µM [falling, partial curve] | 
CC1(C)O[C@@H]2[C@H](O1)[C@@H](COS(=O)(=O)O)O[C@H]2n1cnc2c(N)ncnc21 | 23.1 µM [rising, partial curve, poor fit] | 
CCN(CC(=O)NCc1cccs1)CC(=O)Nc1c(Cl)ccc(C)c1Cl | 1.46 µM [rising, full curve, poor fit] | 
COc1ccc2nc(NC(=S)NC(=O)c3ccco3)sc2c1 | 7.08 µM [falling, full curve] | 3.55 µM [falling, full curve, poor fit]
CC(C)(C)n1nnnc1C(c1cccs1)N(Cc1cccnc1)Cc1ccccc1Cl (stereo unspecified) | 14.6 µM [falling, partial curve] | 11.6 µM [rising, partial curve, poor fit]
O=C(COC(=O)c1ccc(S(=O)(=O)NCc2ccco2)cc1)NC1CCCCCC1 | 29.1 µM [rising, single point] | 
Brc1ccc(CSc2nnc(-c3cnccn3)n2Cc2ccco2)cc1 | 18.4 µM [falling, single point] | 
Cc1ccc(NC(=O)c2cc(C(C)(C)C)nn2Cc2ccccc2)cc1 | 0.631 µM [falling, full curve, poor fit] | 
Cn1nnnc1Sc1ncnc2scc(Br)c12 | 3.66 µM [falling, full curve] | 
COc1ccc(N2C(=O)CN(Cc3cc(OC)c(OC)c(OC)c3)C2=S)cc1 | 8.91 µM [falling, partial curve, poor fit] | 

SMILES | AC50 [1] | AC50 [2]
CC(=O)c1ccc(S(=O)(=O)Nc2cccc(-c3ccc(N4CCOCC4)nn3)c2)cc1 | 8.2 µM [falling, partial curve, poor fit] | 
CCN(CC)c1ccc(NC(=O)C(C)C)cc1 | 6.31 µM [rising, full curve, poor fit] | 
CCOc1ccc(C(=O)NCc2ccc3c(c2)OCO3)cc1OCC | 5.62 µM [rising, partial curve, poor fit] | 
Cn1c(=O)cc(OCC(=O)N2CCC(N3CCCCC3)CC2)c2ccccc21 | 0.517 µM [rising, full curve, poor fit] | 
Cc1ccc(C(=O)n2c(N)nc3ccccc32)cc1 | 0.447 µM [falling, full curve] | 
OCCCNc1c2c(nc3cc(-c4ccc(Cl)cc4)nn13)CCC2 | 0.2 µM [rising, full curve, poor fit] | 
CN(C(=O)COC(=O)CSc1ccc([N+](=O)[O-])cc1)c1ccccc1 | 5.8 µM [falling, full curve] | 
O=c1[nH]c2ccc(NC(=S)Nc3ccc(Cl)cc3)cc2[nH]1 | 0.146 µM [falling, full curve, poor fit] | 
CC(=O)N1C=Cc2c(c(C)c3c([nH]c4ccccc43)c2C)C1 | 8.91 µM [falling, partial curve, poor fit] | 
N#CCc1ccc(NC(=O)/C=C/c2ccc([N+](=O)[O-])o2)cc1 | 11.2 µM [falling, partial curve, poor fit] | 
COc1cccc(/C(O)=C2\C(=O)C(=O)N(c3ccccn3)C2c2cccc(OC)c2OC)c1 (stereo unspecified) | 17.8 µM [falling, partial curve, poor fit] | 
CC(C)N1CCc2c(sc(NC(=O)c3ccc(C(=O)c4ccccc4)cc3)c2C(N)=O)C1 | 25.1 µM [falling, single point] | 
O=C(NN=Cc1cc(Br)c(O)c(Br)c1)c1ccccc1NS(=O)(=O)c1cccs1 | 0.651 µM [rising, partial curve, poor fit] | 
Cc1cc(-c2nc3cccnc3s2)ccc1NS(=O)(=O)c1ccc2c(c1)OCCO2 | 10.3 µM [falling, partial curve, poor fit] | 
O=c1c(C(c2ccc(F)cc2)c2c(O)nc3n(c2=O)CCS3)c(O)nc2n1CCS2 | 3.16 µM [rising, partial curve, poor fit] | 
CC1CCN(CC(O)COCCC23CC4CC(CC(C4)C2)C3)CC1 (stereo unspecified) | 29.1 µM [falling, single point] | 
CC(Nc1nc(N2CCN(S(C)(=O)=O)CC2)nc2ccccc12)c1ccccc1 (stereo unspecified) | 29.1 µM [rising, single point] | 
CCN(CC)C(=O)C1CC(c2ccc(OC)cc2)=NO1 (stereo unspecified) | 35.5 µM [falling, single point] | 
CC(C)(C)C(=O)CSc1ncnc2c1cnn2-c1ccccc1 | 0.398 µM [rising, full curve, poor fit] | 
Cc1coc(C)c1C(=O)CC1(O)C(=O)Nc2cc(Cl)cc(Cl)c21 (stereo unspecified) | 31.6 µM [falling, single point] | 

17 structures from above, ordered by length of the SMILES, high to low.
SMILES | AC50 [1] | AC50 [2]
COc1cccc(/C(O)=C2\C(=O)C(=O)N(c3ccccn3)C2c2cccc(OC)c2OC)c1 (stereo unspecified) | 17.8 µM [falling, partial curve, poor fit] | 
CC(C)N1CCc2c(sc(NC(=O)c3ccc(C(=O)c4ccccc4)cc3)c2C(N)=O)C1 | 25.1 µM [falling, single point] | 
CC(=O)c1ccc(S(=O)(=O)Nc2cccc(-c3ccc(N4CCOCC4)nn3)c2)cc1 | 8.2 µM [falling, partial curve, poor fit] | 
O=C(NN=Cc1cc(Br)c(O)c(Br)c1)c1ccccc1NS(=O)(=O)c1cccs1 | 0.651 µM [rising, partial curve, poor fit] | 
Cc1cc(-c2nc3cccnc3s2)ccc1NS(=O)(=O)c1ccc2c(c1)OCCO2 | 10.3 µM [falling, partial curve, poor fit] | 
CC(Nc1nc(N2CCN(S(C)(=O)=O)CC2)nc2ccccc12)c1ccccc1 (stereo unspecified) | 29.1 µM [rising, single point] | 
CN(C(=O)COC(=O)CSc1ccc([N+](=O)[O-])cc1)c1ccccc1 | 5.8 µM [falling, full curve] | 
N#CCc1ccc(NC(=O)/C=C/c2ccc([N+](=O)[O-])o2)cc1 | 11.2 µM [falling, partial curve, poor fit] | 
Cc1coc(C)c1C(=O)CC1(O)C(=O)Nc2cc(Cl)cc(Cl)c21 (stereo unspecified) | 31.6 µM [falling, single point] | 
CC(=O)N1C=Cc2c(c(C)c3c([nH]c4ccccc43)c2C)C1 | 8.91 µM [falling, partial curve, poor fit] | 
O=c1[nH]c2ccc(NC(=S)Nc3ccc(Cl)cc3)cc2[nH]1 | 0.146 µM [falling, full curve, poor fit] | 
OCCCNc1c2c(nc3cc(-c4ccc(Cl)cc4)nn13)CCC2 | 0.2 µM [rising, full curve, poor fit] | 
CCOc1ccc(C(=O)NCc2ccc3c(c2)OCO3)cc1OCC | 5.62 µM [rising, partial curve, poor fit] | 
CC(C)(C)C(=O)CSc1ncnc2c1cnn2-c1ccccc1 | 0.398 µM [rising, full curve, poor fit] | 
CCN(CC)C(=O)C1CC(c2ccc(OC)cc2)=NO1 (stereo unspecified) | 35.5 µM [falling, single point] | 
Cc1ccc(C(=O)n2c(N)nc3ccccc32)cc1 | 0.447 µM [falling, full curve] | 
CCN(CC)c1ccc(NC(=O)C(C)C)cc1 | 6.31 µM [rising, full curve, poor fit] | 
